Source: US7119111B2, “2-oxo-1,3,4-trihydroquinazolinyl derivatives and methods of use” (Amgen, Inc., priority 2002, dated 2006)
Some results were stated once for a whole list of compounds, not compound by compound.

Amino acid sequences for entries named in this document (tags omitted).
UniProt Q00535, whole entry: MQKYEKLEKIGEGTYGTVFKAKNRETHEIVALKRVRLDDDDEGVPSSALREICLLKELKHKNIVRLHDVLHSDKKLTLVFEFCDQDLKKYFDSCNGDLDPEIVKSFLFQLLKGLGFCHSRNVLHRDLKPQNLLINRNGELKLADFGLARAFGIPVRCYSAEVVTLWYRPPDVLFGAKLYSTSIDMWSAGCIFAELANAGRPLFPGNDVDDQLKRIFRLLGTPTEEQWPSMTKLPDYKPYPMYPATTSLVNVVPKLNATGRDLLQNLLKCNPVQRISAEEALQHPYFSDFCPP

How the values were obtained:
p25/CDK5 = biological target: T1, p25/CDK5 (Homo sapiens, UniProt Q00535); test: CDK5 Kinase Assay; assay type: biochemical; settings: 1 nM His-tagged p25/CDK5, 25 μM ATP, Histone-H1
T1 construct: made in house; host or cells: Hi5 insect cells (baculovirus, Bac-to-Bac; co-infection)

cyclin E2/CDK2 = biological target: T2, cyclin E2/CDK2 (Homo sapiens, UniProt P24941); test: CDK2 Kinase Assay; assay type: biochemical; settings: 1 nM His-tagged cyclin 2/CDK2, 25 μM ATP, Histone-H1
T2 construct: made in house; host or cells: Hi5 insect cells (baculovirus, pFastBacDual)

Row | SMILES | IC50 (p25/CDK5) | IC50 (cyclin E2/CDK2)
1 | O=C1Nc2cc(CN3CCCCC3)ccc2CN1c1csc(-c2ccncc2)n1 [Example 33, 7-(Piperidylmethyl)-3-(2-(4-pyridyl)(1,3-thiazol-4-yl))-1,3,4-trihydroquinazolin-2-one] | < 1 µM | < 1 µM
2 | O=C1Nc2cccc(-c3ccccc3)c2CN1c1csc(-c2ccncc2)n1 [Example 34, 5-Phenyl-3-(2-(4-pyridyl)(1,3-thiazol-4-yl))-1,3,4-trihydroquinazolin-2-one] | < 1 µM | < 1 µM
3 | O=C1Nc2cccc(Cl)c2CN1c1nc(-c2ccncc2)cs1 [Example 43, 5-Chloro-3-(4-(4-pyridyl)(1,3-thiazol-2-yl))-1,3,4-trihydroquinazolin-2-one] | < 1 µM | < 1 µM
4 | O=C1Nc2cccc(F)c2CN1c1nc(-c2ccncc2)cs1 [Example 45, 5-Fluoro-3-(4-(4-pyridyl)(1,3-thiazol-2-yl))-1,3,4-trihydroquinazolin-2-one] | < 1 µM | < 1 µM
5 | O=C1Nc2ccccc2CN1c1nc(-c2ccc(O)cc2)cs1 [Example 49, 3-[4-(4-Hydroxyphenyl)-1,3-thiazol-2-yl]-1,3,4-trihydroquinazolin-2-one] | < 1 µM | < 1 µM
6 | CN1CCC[C@H]1COc1cccc2c1CN(c1nc(-c3ccncc3)ns1)C(=O)N2 [Example 55, 5-[((2S)-1-Methylpyrrolidin-2-yl)methoxy]-3-(3-(4-pyridyl)-(1,2,4-thiadiazol-5-yl))-1,3,4-trihydroquinazolin-2-one] | < 1 µM | < 1 µM
7 | COc1cccc(-c2cccc3c2CN(c2csc(-c4ccncc4)n2)C(=O)N3)c1 [Example 57, 5-(3-Methoxyphenyl)-3-(2-(4-pyridyl)(1,3-thiazol-4-yl))-1,3,4-trihydroquinazolin-2-one] | < 1 µM | < 1 µM
8 | O=C1Nc2cc(O)ccc2CN1c1csc(-c2ccncc2)n1 [Example 58, 7-Hydroxy-3-(2-(4-pyridyl)(1,3-thiazol-4-yl))-1,3,4-trihydroquinazolin-2-one] | < 1 µM | < 1 µM
